Laboratory results taken from the supplement of paper PMC7877785.
± gives the uncertainty stated by the source. Many of these values have a large error.

Test: self-splicing fitness, log relative to wild type (ln ratio); higher = more splicing; Tetrahymena group I intron in knt gene, E. coli kanamycin selection, DiMSum; sequences stand for … in CUCUCU…GGAGGGAAAAGUUAUCAGGCAUGCACCUGGUAGCUAGUCUUUAAACCAAUAGAUUGCAUCGGUUUAAAAGGCAAGACCGUCAAAUUGCGGGAAAGGGGUCAACAGCCGUUCAGUACCAAGUCUCAGGGGAAACUUUGAGAUGGCCUUGCAAAGGGUAUGGUAAUAAGCUGACGGACAUGGUCCUAACCACGCAGCCAAGUCCUAAGUCAACAGAUCUUCUGUUGAUAUGGAUGCAGUUCACAGACUAAAUGUCGGUCGGGGAAGAUGUAUUCUUCUCAUAAGAUAUAGUCGGACCUCUCCUUAAUGGGAGCUAGCGGAUGAAGUGAUGCAACACUGGAGCCGCUGGGAACUAAUUUGUAUGCGAAAGUAUAUUGAUUAGUUUUGGAGUACUCGUGGUCG
How it was run: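 Six replicate transformations of E. coli BL21(DE3) with a pET-22b(+) library were grown overnight at 37°C or 30°C. The library randomised all eight P1ex-region intron nucleotides, the intron lying in the knt kanamycin-resistance gene, and plates were LB agar with or without 25 μg/mL kanamycin plus 100 μg/mL carbenicillin, 50 μM IPTG and 0.2% rhamnose. Pooled colonies were amplicon-sequenced on an Illumina HiSeq 2500, and fitness is the DiMSum error-weighted combination of wild-type-normalised replicate fold changes, kanamycin versus none.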

Sequence | self-splicing fitness (ln) (37 °C) | self-splicing fitness (ln) (30 °C)
UCCGAGCAAUAUUACGAUGC | -3.33 ± 0.73 | –
GUCGAGCAAUAUUACGAGGG | – | -2.96 ± 0.51
UAAGAGCAAUAUUACGGGCG | -2.29 ± 0.19 | -2.73 ± 0.16
CACAAGCAAUAUUACGUGGU | -2.66 ± 0.19 | -4.1 ± 0.17
CGUGAGCAAUAUUACGGAAU | – | -3.53 ± 0.53
UCUUAGCAAUAUUACGAAAA | – | -2.91 ± 0.57
GAGUAGCAAUAUUACGCCAU | -2.33 ± 0.31 | -2.49 ± 0.19
AUGAAGCAAUAUUACGGUGA | 0.195 ± 0.096 | -0.607 ± 0.069
UUCAAGCAAUAUUACGUAAC | – | -3.25 ± 0.53
AAGCAGCAAUAUUACGUGCG | -0.0742 ± 0.092 | -0.989 ± 0.073
UCGGAGCAAUAUUACGAGCC | -1.51 ± 0.56 | –
ACGGAGCAAUAUUACGGGUG | -3.18 ± 0.22 | -3.61 ± 0.18
CGAGAGCAAUAUUACGCAGC | – | -3.17 ± 0.77
CGGGAGCAAUAUUACGCAUU | -2.92 ± 0.75 | -4.3 ± 0.59
ACCGAGCAAUAUUACGAAUA | -2.41 ± 0.2 | -3.02 ± 0.32
CAUGAGCAAUAUUACGUGAC | -1.49 ± 0.81 | –
UUCGAGCAAUAUUACGAAUA | – | -2.62 ± 0.56
CAUCAGCAAUAUUACGCCAC | -2.22 ± 0.43 | -2.77 ± 0.46
GAGUAGCAAUAUUACGGAUG | -2.83 ± 0.53 | –
UGCGAGCAAUAUUACGCCCA | 1.79 ± 1 | -2.09 ± 0.82
UUGGAGCAAUAUUACGACGC | – | -2.42 ± 0.82
GUGGAGCAAUAUUACGCAUC | – | -3.82 ± 1
UGGUAGCAAUAUUACGCAAG | -3.29 ± 0.52 | -4.04 ± 0.76
CAUAAGCAAUAUUACGCAGC | -2.17 ± 0.55 | –

Laid out differently: entries from further up
GUGGAGCAAUAUUACGCAUC
  self-splicing fitness (ln) (30 °C) = -3.82 ± 1
UGGUAGCAAUAUUACGCAAG
  self-splicing fitness (ln) (37 °C) = -3.29 ± 0.52; self-splicing fitness (ln) (30 °C) = -4.04 ± 0.76

(next part)

Sequence | self-splicing fitness (ln) (37 °C) | self-splicing fitness (ln) (30 °C)
UCGUAGCAAUAUUACGCCAG | -1.79 ± 0.53 | –
CGAGAGCAAUAUUACGGCUC | -2.76 ± 0.74 | –
GUCGAGCAAUAUUACGAGGU | -1.97 ± 0.52 | –
CACGAGCAAUAUUACGAACC | – | -3.46 ± 1.1
ACUCAGCAAUAUUACGAAUC | – | -4.04 ± 0.52
CUAUAGCAAUAUUACGUCCC | -1.78 ± 1.2 | -2.49 ± 0.73
CACUAGCAAUAUUACGUCGG | 0.0907 ± 0.1 | -1.25 ± 0.082
CAUAAGCAAUAUUACGACCA | – | -3.58 ± 0.73
AACGAGCAAUAUUACGCAGC | -2.59 ± 0.76 | –
GGCGAGCAAUAUUACGUAGC | -2.05 ± 1.1 | -1.61 ± 0.54
UUGGAGCAAUAUUACGGGUC | -3.25 ± 0.53 | –
UUCUAGCAAUAUUACGUCCC | -1.63 ± 0.73 | -2.69 ± 0.81
AACUAGCAAUAUUACGGUAU | -0.479 ± 0.092 | -1.31 ± 0.072
UAGUAGCAAUAUUACGAUUC | -1.91 ± 0.52 | -2.48 ± 0.78
CAGGAGCAAUAUUACGUGCC | -1.96 ± 0.52 | –
CACUAGCAAUAUUACGAAGC | – | -3.11 ± 0.74
CAAGAGCAAUAUUACGCUGA | -2.08 ± 0.21 | -2.97 ± 0.19
UGCGAGCAAUAUUACGGUUC | -2.31 ± 0.63 | -2.75 ± 0.28
GACGAGCAAUAUUACGCGGC | -4.49 ± 0.51 | –
GAGGAGCAAUAUUACGAAAA | -2.22 ± 0.5 | -2.42 ± 1.2
CCUGAGCAAUAUUACGCAUC | -3.53 ± 0.52 | –
UCUUAGCAAUAUUACGCUCC | -1.63 ± 0.68 | -2.83 ± 0.62
CCUUAGCAAUAUUACGUAUA | – | -4.45 ± 0.51
AUGGAGCAAUAUUACGACGG | – | -3.21 ± 1.1

Single values from above:
For self-splicing fitness (ln) (37 °C), CCUGAGCAAUAUUACGCAUC reads -3.53 ± 0.52
For self-splicing fitness (ln) (37 °C), UUCUAGCAAUAUUACGUCCC reads -1.63 ± 0.73

Continued.

Sequence | self-splicing fitness (ln) (37 °C) | self-splicing fitness (ln) (30 °C)
AGCGAGCAAUAUUACGACAC | -0.825 ± 0.61 | –
UUCGAGCAAUAUUACGCCCU | -0.927 ± 1.2 | -3.68 ± 0.53
GUGCAGCAAUAUUACGCCAG | -2.5 ± 0.62 | –
CGGAAGCAAUAUUACGAUGC | – | -4.74 ± 0.73
UCCGAGCAAUAUUACGUACA | -2.82 ± 0.53 | –
GAAUAGCAAUAUUACGCAUC | -1.85 ± 0.81 | –
AUUGAGCAAUAUUACGACAC | -1.45 ± 0.22 | -2.36 ± 0.19
CGCCAGCAAUAUUACGGAGA | – | -4.59 ± 0.72
UACGAGCAAUAUUACGAGCU | -1.74 ± 0.66 | –
AUUCAGCAAUAUUACGGGGU | -2.85 ± 0.26 | -3.78 ± 0.39
UAUGAGCAAUAUUACGGCCU | -2.84 ± 0.77 | –
CUAAAGCAAUAUUACGCUUC | -2.51 ± 0.54 | –
GUGGAGCAAUAUUACGGUUC | -1.9 ± 0.58 | -4.95 ± 1
GGGAAGCAAUAUUACGCCCU | -1.95 ± 0.81 | -2.89 ± 0.51
ACUUAGCAAUAUUACGACCC | 0.52 ± 0.55 | –
UAGUAGCAAUAUUACGAUAG | -1.9 ± 0.54 | –
GUGGAGCAAUAUUACGGACU | -0.95 ± 0.77 | -0.699 ± 0.9
CCCCAGCAAUAUUACGAUUU | -3.51 ± 0.25 | -3.43 ± 0.14
UCUCAGCAAUAUUACGUCCC | -2.48 ± 0.54 | -3.96 ± 1
UUAUAGCAAUAUUACGCGGC | -2.4 ± 0.37 | -2.42 ± 0.49
GAGUAGCAAUAUUACGAGGU | -3.42 ± 0.73 | –
UGCUAGCAAUAUUACGCGGC | -2.26 ± 0.56 | –
UUAUAGCAAUAUUACGUAGC | -2.19 ± 0.78 | –
UAAGAGCAAUAUUACGCCGA | -3.18 ± 1 | –

Sequence | self-splicing fitness (ln) (37 °C) | self-splicing fitness (ln) (30 °C)
AGAGAGCAAUAUUACGAUAG | – | -3.88 ± 1.1
GUCCAGCAAUAUUACGUAAA | 0.338 ± 0.12 | -0.484 ± 0.081
UAGUAGCAAUAUUACGUGUC | – | -2.18 ± 0.59
CACGAGCAAUAUUACGCCAA | -3.87 ± 1 | -4.14 ± 0.73
CUACAGCAAUAUUACGUCUA | -3.04 ± 0.33 | -3.21 ± 0.24
GGUUAGCAAUAUUACGGUGG | – | -4.12 ± 0.75
CCGGAGCAAUAUUACGUCUU | -3.51 ± 0.6 | -5.88 ± 1
UUAAAGCAAUAUUACGGUCC | – | -3.06 ± 1.1
UUAAAGCAAUAUUACGAGGC | -2.36 ± 0.29 | -3.94 ± 0.37
AUCGAGCAAUAUUACGCACC | -2.08 ± 0.56 | –
CUGGAGCAAUAUUACGAGAA | -2.64 ± 1.1 | -1.27 ± 0.65
CUAGAGCAAUAUUACGCUAC | -3.22 ± 0.52 | –
UUUCAGCAAUAUUACGUUUC | – | -3.8 ± 0.52
AAUGAGCAAUAUUACGUUAC | -3.16 ± 0.52 | -3.61 ± 0.54
ACAGAGCAAUAUUACGCCCC | -1.47 ± 1.2 | -2.56 ± 0.77
AUGUAGCAAUAUUACGUGGG | – | -5.27 ± 1
UCGCAGCAAUAUUACGUUCC | -2.63 ± 0.61 | –
UGAGAGCAAUAUUACGCUCA | – | -2.62 ± 0.62
ACGGAGCAAUAUUACGAGAC | -2.82 ± 0.75 | –
UAUAAGCAAUAUUACGAAGC | -2.63 ± 1.1 | -3.06 ± 1.1
AGUUAGCAAUAUUACGUAGG | -1.87 ± 0.58 | –
CGUGAGCAAUAUUACGCCAA | -3.37 ± 1 | –
AGUAAGCAAUAUUACGGUUG | -2.51 ± 0.25 | -3.09 ± 0.23
